These are yes or no findings as the source states them, for the method shown. Binding seen in cells or lysates may run through a third protein. Some results given as binding are weak or reduced against the parent protein; the word gives no strength.
Target: His-tagged SPP1 secreted by BC cells (coculture with THP-1 cells) (UniProt P10451)
Experiment: co-IP; M1-polarized THP-1 cells with His-tagged SPP1 secreted by BC cells; protein A/G beads with antibody, 5 h, 4 °C; IP buffer 20 mM Tris-HCl pH 7.5, 150 mM NaCl, 1% Triton X-100; western blot

The chains behind the UniProt entries cited, without tags or fusion partners. Where a name states a change or a piece, a line headed by the entry shows the natural chain unless it says otherwise. Residues count along the entry.
UniProt P10451, residues 17-314: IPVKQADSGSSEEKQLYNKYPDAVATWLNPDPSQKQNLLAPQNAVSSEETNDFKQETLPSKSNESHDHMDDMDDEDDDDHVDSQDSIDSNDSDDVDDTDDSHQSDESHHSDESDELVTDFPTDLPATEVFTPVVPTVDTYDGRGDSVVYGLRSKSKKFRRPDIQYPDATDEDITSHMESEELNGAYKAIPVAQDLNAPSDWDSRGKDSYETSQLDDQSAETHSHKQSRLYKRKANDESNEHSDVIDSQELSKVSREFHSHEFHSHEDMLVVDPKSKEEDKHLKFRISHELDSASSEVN
UniProt P13612: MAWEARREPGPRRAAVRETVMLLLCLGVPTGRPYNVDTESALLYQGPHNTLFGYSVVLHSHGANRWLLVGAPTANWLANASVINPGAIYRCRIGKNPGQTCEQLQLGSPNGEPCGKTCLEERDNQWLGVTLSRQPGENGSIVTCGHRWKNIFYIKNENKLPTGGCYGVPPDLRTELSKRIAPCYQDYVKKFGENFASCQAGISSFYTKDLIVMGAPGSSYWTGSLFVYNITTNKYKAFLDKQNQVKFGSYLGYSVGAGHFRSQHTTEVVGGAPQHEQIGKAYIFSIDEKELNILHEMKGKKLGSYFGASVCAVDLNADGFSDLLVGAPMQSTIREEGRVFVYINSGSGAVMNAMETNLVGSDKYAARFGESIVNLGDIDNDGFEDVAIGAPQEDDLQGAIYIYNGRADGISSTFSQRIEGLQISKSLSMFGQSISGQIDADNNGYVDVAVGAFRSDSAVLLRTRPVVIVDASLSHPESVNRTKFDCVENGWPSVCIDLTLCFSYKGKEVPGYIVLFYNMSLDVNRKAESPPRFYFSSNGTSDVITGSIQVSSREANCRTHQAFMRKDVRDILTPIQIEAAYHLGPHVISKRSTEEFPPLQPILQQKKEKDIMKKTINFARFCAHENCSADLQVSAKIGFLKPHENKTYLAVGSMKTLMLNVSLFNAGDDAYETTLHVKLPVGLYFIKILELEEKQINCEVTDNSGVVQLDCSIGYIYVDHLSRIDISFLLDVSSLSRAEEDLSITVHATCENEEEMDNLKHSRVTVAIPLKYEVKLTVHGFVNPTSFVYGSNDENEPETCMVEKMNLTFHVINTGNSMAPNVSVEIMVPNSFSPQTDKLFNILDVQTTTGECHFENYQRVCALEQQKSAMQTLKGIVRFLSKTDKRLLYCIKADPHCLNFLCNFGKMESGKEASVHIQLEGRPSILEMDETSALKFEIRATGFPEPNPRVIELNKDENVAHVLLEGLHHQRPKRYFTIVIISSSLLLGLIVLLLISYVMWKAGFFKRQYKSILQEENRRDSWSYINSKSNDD

- binding: binds
Substance: integrin α4/β1 (ITGA4/ITGB1) complex, human, endogenous in THP-1 cells (from UniProt P13612 34-1032; P05556 21-798)

Source: paper PMC12261641
